The values below are quoted from earlier work in patent US11679240B2, “Removable covers for drug eluting medical devices” (W. L. Gore & Associates, Inc., priority 2014, dated 2023).

As to `CC(=O)O[C@H]1C(=O)[C@@]2(C)[C@H]([C@H](OC(=O)c3ccccc3)[C@]3(O)C[C@H](OC(=O)[C@H](O)[C@@H](NC(=O)c4ccccc4)c4ccccc4)C(C)=C1C3(C)C)[C@]1(OC(C)=O)CO[C@@H]1C[C@@H]2O` [paclitaxel], the solubility limit entry (neat DI-water, room temperature) is “about 0.4 μM”. Also, where the note is “with hydroxypropyl-β-cyclodextrin at 60% (w/v in water)”, the “solubilized concentration of paclitaxel in solution” value is listed as “approximately 4 mM”.
